# Reference: PubChem BioAssay AID1671195 (Yale University, 2021)
# Screen: 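Genes whose knockdown alters LDL uptake in liver cancer cells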 (primary screen)
# System: human Huh7 hepatoma cells
# Reagents: siRNA pool against human genes, 18 nM
# Duration: about 2 to 2.5 days of knockdown, then 8 h LDL uptake
# Conditions: DiI-labelled LDL at 30 µg/ml for 8 h, in lipoprotein-deficient serum medium
# Measurement: 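Per-cell DiI-LDL intensity by automated imaging; well means scaled to the plate median and given as a robust z-score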
# Scale: robust z-score: higher = more LDL uptake after knockdown
# Active means: 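Active when two or more replicates show a robust z-score above 2 or below -2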
# This is a random part of about 22,000 deposited reagents. Of all reagents, about 1,510 (6.9%) are marked active. 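Active includes knockdowns raising or lowering LDL uptake; positive z-scores mean more uptake, negative mean less.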 Entries without a mark were called inactive. Reagents against one gene are numbered here. Reagent sequences are not shown.
gene,reagent,"robust z-score, replicate 1","robust z-score, replicate 2","robust z-score, replicate 3"
CRB2 (GeneID 286204),1,-1.37,-1.14,-1.42
ZNF112 (GeneID 7771),1,-0.373,0.801,0.13
PKM (GeneID 5315),1,0.134,0.0324,-0.399
MPHOSPH6 (GeneID 10200),1,-0.717,0.55,-0.636
GAL3ST4 (GeneID 79690),1,0.321,0.74,1.11
EIF4A1 (GeneID 1973),1,-1.23,-1.07,-1.42
MYO7A (GeneID 4647),1,-0.0308,0.363,0.266
DTNB (GeneID 1838),1,-0.141,0.332,-0.651
TDRP (GeneID 157695),1,-1.33,-1.85,-1.3
MKKS (GeneID 8195),1,1.58,1.71,1.99
BEND2 (GeneID 139105),1,-1.66,-0.719,-1.08
LOC286478 (retired record) (GeneID 286478),1,3.12 (active),2.88,3.55
PPP3CA-DT (GeneID 90024),1,-1.85,-1.6,-0.836
RPL32P20 (GeneID 392271),1,-1.44,-0.26,-0.0752
LOC440036 (retired record) (GeneID 440036),1,0.394,1.22,0.232
UFL1 (GeneID 23376),1,-1.35,0.75,-1.98
LOC387915 (retired record) (GeneID 387915),1,2.36 (active),2.09,2.81
CSF3R (GeneID 1441),1,1.44,0.709,1.21
LOC388657 (retired record) (GeneID 388657),1,-0.478,-0.257,-0.773
GPR161 (GeneID 23432),1,-0.326,-0.68,0.246
LOC441551 (retired record) (GeneID 441551),1,1.65 (active),2.16,2.37
TET2 (GeneID 54790),1,0.913,-0.0906,0.878
TET2 (GeneID 54790),2,-0.921,-1.35,-1.26
WAC-AS1 (GeneID 220906),1,-0.731,-1.03,-0.863
DDX18 (GeneID 8886),1,0.175,0.249,0.474
LEFTY1 (GeneID 10637),1,1.36,0.663,1.59
ABCF2 (GeneID 10061),1,-0.0139,0.192,-0.278
PIK3R2 (GeneID 5296),1,-0.777,-1.99,-1.4
APBB1 (GeneID 322),1,0.989,-0.475,-0.25
LOC402230 (GeneID 402230),1,-0.888,0.298,0.0177
LOC441689 (retired record) (GeneID 441689),1,0.702,0.417,0.617
KIAA0040 (GeneID 9674),1,-0.567,0.0104,1.28
FMO3 (GeneID 2328),1,-1.43,-0.958,-0.983
MOCS3 (GeneID 27304),1,-0.507,-0.209,-0.65
WNT4 (GeneID 54361),1,0.473,0.535,0.612
LOC440100 (retired record) (GeneID 440100),1,0.286,0.321,0.423
CACNA1I (GeneID 8911),1,7.21 (active),8.36,6.92
MEGF9 (GeneID 1955),1,1.56,1.26,1.07
CDS1 (GeneID 1040),1,-0.248,-0.901,-0.45
WASHC3 (GeneID 51019),1,1.05,1.88,0.223
PHKA2 (GeneID 5256),1,-0.727,-1.05,-0.578
LRRC32 (GeneID 2615),1,-0.0481,0.549,-0.0989
GPATCH4 (GeneID 54865),1,0.657,1.37,0.316
ANKRD20A18P (GeneID 391269),1,0.652,-0.217,-0.139
NAPB (GeneID 63908),1,1.55,1.98,0.85
KCND3 (GeneID 3752),1,-0.977,-0.603,-0.928
COXFA4L3 (GeneID 84419),1,0.0705,0.118,-0.267
PDZK1 (GeneID 5174),1,2.51 (active),1.19,2.23
TSPEAR-AS2 (GeneID 114043),1,-0.627,0.0313,-0.211
FTH1P19 (GeneID 389844),1,0.837,1.43,1.02
SLC25A15 (GeneID 10166),1,-0.623,-1.39,-0.871
SOX7 (GeneID 83595),1,-0.838,-0.415,-1.03
NMU (GeneID 10874),1,0.661,1.11,0.249
CHP1 (GeneID 11261),1,-1.83,-1.64,-1.57
POU6F1 (GeneID 5463),1,-1.65,-2.02,-1.79
SPATA18 (GeneID 132671),1,-0.205,-0.568,-1.23
XKR9 (GeneID 389668),1,-0.737,-0.644,-0.63
OTX2 (GeneID 5015),1,-0.734,-0.39,-1.58
SNUPN (GeneID 10073),1,7.41 (active),6.81,8.33
PITPNB (GeneID 23760),1,-1.58 (active),-2.27,-2.22
LOC442091 (retired record) (GeneID 442091),1,-1.06,-0.485,-1.05
HSPA2 (GeneID 3306),1,-0.894,-0.993,-0.681
S100A1 (GeneID 6271),1,0.2,0.0686,0.244
MYPOP (GeneID 339344),1,-1.22,-1.25,-1.13
ERCC4 (GeneID 2072),1,0.645,0.788,0.94
SHKBP1 (GeneID 92799),1,-1.95,-1.14,-1.12
DKFZp451B082 (GeneID 401282),1,0.535,0.212,0.438
DNAJB6 (GeneID 10049),1,-0.177,0.238,0.00162
LOC126772 (retired record) (GeneID 126772),1,0.453,2.55,1.04
ELOVL3 (GeneID 83401),1,0.744,0.698,1.04
PCDHGA2 (GeneID 56113),1,-0.433,-0.579,-0.409
RETREG2 (GeneID 79137),1,-0.139,-0.0453,-0.873
ZNF746 (GeneID 155061),1,-0.531,-0.929,-0.0598
NUP188 (GeneID 23511),1,-0.487,-0.429,0.616
GNG11 (GeneID 2791),1,0.591,0.4,0.242
PPIP5K1 (GeneID 9677),1,-0.551,-0.217,0.322
EMC8 (GeneID 10328),1,1.46,1.5,0.131
CCL19 (GeneID 6363),1,0.224,0.178,0.518
FMO4 (GeneID 2329),1,-0.238,0.23,0.166
MACROD1 (GeneID 28992),1,-1.89,0.579,0.114
VNN3P (GeneID 55350),1,0.00668,0.674,0.742
TSPAN13 (GeneID 27075),1,-1.18,0.139,-1.1
LOC400741 (retired record) (GeneID 400741),1,1.14,0.751,0.978
CDK5RAP1 (GeneID 51654),1,-0.584,1.41,0.322
MTHFSD (GeneID 64779),1,1.15,1.48,0.961
MTUS1 (GeneID 57509),1,0.619,0.599,-0.36
TRPV5 (GeneID 56302),1,-0.62,-0.934,-0.737
